Data reported in patent publication US20240166641A1, “HETEROCYCLES AND USES THEREOF” (Kumquat Biosciences Inc., priority 2021, published 2024).
Some entries share one result that the patent states for a list of compounds.

Amino acid sequences for entries named in this document (tags omitted). A change or cut given only in a name is not applied to a line headed by its entry.
UniProt P17706: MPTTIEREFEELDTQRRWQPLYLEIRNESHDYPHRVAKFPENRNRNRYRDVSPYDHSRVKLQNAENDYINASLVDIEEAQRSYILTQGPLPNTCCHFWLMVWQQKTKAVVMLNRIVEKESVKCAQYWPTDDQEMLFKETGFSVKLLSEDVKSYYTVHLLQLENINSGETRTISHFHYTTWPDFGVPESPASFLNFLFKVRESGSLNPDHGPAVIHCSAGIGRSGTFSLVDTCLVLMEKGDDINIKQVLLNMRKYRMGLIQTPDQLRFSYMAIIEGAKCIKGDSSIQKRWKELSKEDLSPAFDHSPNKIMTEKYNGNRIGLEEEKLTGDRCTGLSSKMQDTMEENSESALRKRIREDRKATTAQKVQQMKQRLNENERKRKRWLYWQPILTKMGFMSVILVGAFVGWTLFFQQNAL

Each compound was assayed against T1, PTPN2 Iso 1-314 (Homo sapiens, UniProt P17706) (assay: Thermal shift assay). Conditions: 200 uM compound, 26 uM protein, overnight at 4° C.
T1 construct: PTPN2 Iso 1-314 plasmid was synthesized by ATUM; made in house; host or cells: E. coli BL21(DE3) Star
T1 sequence (P17706 with tags, fused parts or gaps): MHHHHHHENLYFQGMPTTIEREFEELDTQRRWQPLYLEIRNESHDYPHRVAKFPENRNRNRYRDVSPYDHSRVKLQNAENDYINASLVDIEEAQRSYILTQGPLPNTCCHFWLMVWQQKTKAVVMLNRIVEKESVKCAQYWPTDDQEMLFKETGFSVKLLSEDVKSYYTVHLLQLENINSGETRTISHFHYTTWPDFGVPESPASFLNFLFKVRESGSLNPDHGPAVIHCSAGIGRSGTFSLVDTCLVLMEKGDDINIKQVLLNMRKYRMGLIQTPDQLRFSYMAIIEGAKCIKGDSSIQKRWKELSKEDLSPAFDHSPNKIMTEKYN
Format: binding

| SMILES | melting temperature shifts of PTPN2 protein |
| --- | --- |
| CC(C)Nc1cc2c(F)c(N3CC(=O)NS3(=O)=O)c(O)cc2n(C2CC2)c1=O [Compound 133] | at least 2.0 °C |
| CC(C)CCOc1cc2c(F)c(N3CC(=O)NS3(=O)=O)c(O)cc2n(C)c1=O [Compound 136, 5-(5-fluoro-7-hydroxy-3-(isopentyloxy)-1-methyl-2-oxo-1,2-dihydroquinolin-6-yl)-1,2,5-thiadiazolidin-3-one 1,1-dioxide] | at least 2.0 °C |
| O=C1CN(c2c(O)cc3ccc(OCC4CCS(=O)(=O)CC4)nc3c2F)S(=O)(=O)N1 [Compound 143] | at least 2.0 °C |
| CNc1ccc2cc(O)c(N3CC(=O)NS3(=O)=O)c(F)c2n1 [Compound 153] | at least 2.0 °C |
| COc1ccc2cc(O)c(N3CC(=O)NS3(=O)=O)c(F)c2n1 [Compound 154] | at least 2.0 °C |
| N#CCCCOc1ccc2cc(O)c(N3CC(=O)NS3(=O)=O)cc2n1 [Compound 175] | at least 2.0 °C |
| CN(C)CCOc1ccc2cc(O)c(N3CC(=O)NS3(=O)=O)c(F)c2n1 [Compound 178] | at least 2.0 °C |
| Cn1c(=O)c(NCc2ccccc2)cc2c(F)c(N3CC(=O)NS3(=O)=O)c(O)cc21 [Compound 180] | at least 2.0 °C |
| O=C1CN(c2c(O)cc3c(cc(NC4CCCC4)c(=O)n3C3CC3)c2F)S(=O)(=O)N1 [Compound 185] | at least 2.0 °C |
| CC(C)CCNc1cc2c(F)c(N3CC(=O)NS3(=O)=O)c(O)cc2n(C)c1=O [Compound 186] | at least 2.0 °C |
